# Experimental data reported in publication PMC7819943, “Rice protein-binding microarrays: a tool to detect cis-acting elements near promoter regions in rice”.
# The chains behind the UniProt entries cited, without tags or fusion partners.
# UniProt Q0JBA9, entry or part of it: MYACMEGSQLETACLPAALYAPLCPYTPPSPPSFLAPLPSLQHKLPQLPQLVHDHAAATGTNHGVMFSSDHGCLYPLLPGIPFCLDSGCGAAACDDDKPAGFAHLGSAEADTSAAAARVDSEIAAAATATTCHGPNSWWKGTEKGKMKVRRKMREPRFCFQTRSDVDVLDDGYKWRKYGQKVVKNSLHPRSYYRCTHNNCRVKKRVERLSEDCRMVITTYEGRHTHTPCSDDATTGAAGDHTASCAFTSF
# Some of the results follow.
# Target: OsWRKY34 (Oryza sativa, UniProt Q0JBA9 1-250)
# Experiment: protein-binding microarray (RPBM); PBS, 2% BSA, 51.3 ng/ul salmon testes DNA, 50 uM zinc acetate, 200 nM TF, 25 C, 1 h; high values mean tight binding
# Details: protein: recombinant; tags: N-terminal polyhistidine and DsRed monomer fusion (pET32a); label: CyDye5-dUTP incorporated in the synthesized complementary strand; 3' TTTTT single-stranded linker to array surface; dsDNA, one strand shown
# In short: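 Polyhistidine-tagged DsRed fusions of transcription factors, joined at the N-terminus, were expressed in E. coli BL21-CodonPlus and isolated on Ni–NTA. They were incubated at 200 nM for 1 h at 25 °C on a custom Agilent array, double-stranded and BSA-blocked, in PBS with 2% BSA, salmon testes DNA and 50 µM zinc acetate. The binding signal is per-feature fluorescence intensity (arbitrary units) read on an Axon 4000B scanner after washing.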
row,Sequence,binding signal
1,ACCGCCTCTCCACTCTACCACACCGACACGCACACCCAGCCGGAGTCACCTAGTGCAG,9720 fluorescence intensity (a.u.)
2,CACGCGCGTGGTCGGTGAAAATGCTAGGCCTACTTACTGTCGGAGTCACCTAGTGCAG,8120 fluorescence intensity (a.u.)
3,TGTTTCTTTCGGTTTCTTGGGCTTCTCTTGCGGCAACATGCGGAGTCACCTAGTGCAG,10500 fluorescence intensity (a.u.)
4,CCCTTTGTTTGTGTGTTTGGCTTGTCCAATTCAAAGTTTCCGGAGTCACCTAGTGCAG,10000 fluorescence intensity (a.u.)
5,CGATGGCCTCCTCCTCCTCCGCGTAACCATCGTCACCACCCGGAGTCACCTAGTGCAG,8100 fluorescence intensity (a.u.)
6,TTCGCGCCCACCGTAGCTGGACACCTCCCCGCGCCTTGCGCGGAGTCACCTAGTGCAG,8710 fluorescence intensity (a.u.)
7,TACTGGTTGATTGTACACTTTGTCCTTGGATTTTACGGACCGGAGTCACCTAGTGCAG,9580 fluorescence intensity (a.u.)
8,ACCACCATTCGTGCTGCCGCTTGCGTGTTGTTATTACTCCCGGAGTCACCTAGTGCAG,8480 fluorescence intensity (a.u.)
9,CGTGGCCGTCGAGTTGCTGCCTCAGTTGGTTCAAGAACCGCGGAGTCACCTAGTGCAG,9240 fluorescence intensity (a.u.)
10,GCAGTGTCATGTTTTTTCGGTGTCCTCTAACCAATTACACCGGAGTCACCTAGTGCAG,11500 fluorescence intensity (a.u.)
11,GGTGTTCTGTGATGGTGAATATGCATTTCCTATCTGGATCCGGAGTCACCTAGTGCAG,9150 fluorescence intensity (a.u.)
12,TGGTGGTGGTAGGAAGAAGAAGAAAGAGAGGGGAAAAAAACGGAGTCACCTAGTGCAG,8450 fluorescence intensity (a.u.)
13,AGCGGGGCAAGGCGGAATAGGGCGGTTGCTGCGGTGGGGACGGAGTCACCTAGTGCAG,8510 fluorescence intensity (a.u.)
14,CCCGCCGCTGCCGCTCCGCTCGCTCGCCCGCCACTGCCGCCGGAGTCACCTAGTGCAG,11700 fluorescence intensity (a.u.)
15,TGATGATGGGTGGGATTGCCTTTCTCGAATCCTGTTCCACCGGAGTCACCTAGTGCAG,8900 fluorescence intensity (a.u.)
16,GGCTTATTTCTGCAATGCATTTTTTTTCTGGTTTGACTCTCGGAGTCACCTAGTGCAG,15800 fluorescence intensity (a.u.)
17,ACTTCCCATTGTTGTTGCCATCGCCGCCGCCGCCGCCGCCCGGAGTCACCTAGTGCAG,12200 fluorescence intensity (a.u.)
18,ACTGTTTCCTTTAATTTGACTCTGTCACAGTTGAGTTCTACGGAGTCACCTAGTGCAG,8060 fluorescence intensity (a.u.)
19,CCGACTGCCGCCTTCCTCGCCGCCCTCAACTCCACCTTCGCGGAGTCACCTAGTGCAG,9640 fluorescence intensity (a.u.)
20,CCTACGAGTATCACGTTCTCCTGCTGCTCCACCAGCGTTACGGAGTCACCTAGTGCAG,11000 fluorescence intensity (a.u.)
21,TTATCCGTGTATGAGTATGTTTTTAAGTTCATTTGGTTTTCGGAGTCACCTAGTGCAG,11500 fluorescence intensity (a.u.)

# Laid out differently: entries from further up.
row	Sequence	binding signal
2	CACGCGCGTGGTCGGTGAAAATGCTAGGCCTACTTACTGTCGGAGTCACCTAGTGCAG	8120 fluorescence intensity (a.u.)
3	TGTTTCTTTCGGTTTCTTGGGCTTCTCTTGCGGCAACATGCGGAGTCACCTAGTGCAG	10500 fluorescence intensity (a.u.)
4	CCCTTTGTTTGTGTGTTTGGCTTGTCCAATTCAAAGTTTCCGGAGTCACCTAGTGCAG	10000 fluorescence intensity (a.u.)

# Following part:

row,Sequence,binding signal
1,GTCGTTCGTATCCGATTCCTGTCACGCGCAACATTCATTGCGGAGTCACCTAGTGCAG,9650 fluorescence intensity (a.u.)
2,CCTGCACCGTCCTCCGCGCGTCCGCCCCTCACTCTCCCAGCGGAGTCACCTAGTGCAG,10600 fluorescence intensity (a.u.)
3,AGACACAGACGCGCACATACCACTACACACACAACACCACCGGAGTCACCTAGTGCAG,9740 fluorescence intensity (a.u.)
4,TGTTGGTTCAAAATGTACAGCTGTACTCTCTATCACATTTCGGAGTCACCTAGTGCAG,8110 fluorescence intensity (a.u.)
5,AAGGGCCCATTTGCTACTCCACCCACGGTTTTCTCTCAAACGGAGTCACCTAGTGCAG,10100 fluorescence intensity (a.u.)
6,CCTTGGTTTCACCTTTGCTGTATTGGTGTTTGGTTGGTCTCGGAGTCACCTAGTGCAG,13100 fluorescence intensity (a.u.)
7,AGGTGCCCTGTCAATCGTTTCCGTGATTCGTGCTTCTATACGGAGTCACCTAGTGCAG,10200 fluorescence intensity (a.u.)
8,GGTATGTGGAGTTTATCATCCCTTAGTCCTAGCTGTCGCCCGGAGTCACCTAGTGCAG,10900 fluorescence intensity (a.u.)
9,ACTATTATACCTGCTCTTAATCGTCACACAAACCGCGGTTCGGAGTCACCTAGTGCAG,10300 fluorescence intensity (a.u.)
10,TCCTTCTGTCACCATTCGATTCCCAAACTCTCGCCGCCGCCGGAGTCACCTAGTGCAG,9140 fluorescence intensity (a.u.)
11,TGCCGTTGATTTTTTTTTAAACATGTTTGACCGTTCGTCTCGGAGTCACCTAGTGCAG,14900 fluorescence intensity (a.u.)
12,GCCCGCCTTTTCTCATCAGCTTAAATTTTTGGGTTGAACTCGGAGTCACCTAGTGCAG,8220 fluorescence intensity (a.u.)
13,TTGGCTGTTGCTGAGGGCTAGGGGCAGTTTTTGGATGGTTCGGAGTCACCTAGTGCAG,9500 fluorescence intensity (a.u.)
14,GGACACTGCACATTGCAATTTCTGGATCTGGACTGACTGACGGAGTCACCTAGTGCAG,8370 fluorescence intensity (a.u.)
15,GCTGTCCATGCTGACCCATGTTGCTCTGTACAAGCTTTATCGGAGTCACCTAGTGCAG,8790 fluorescence intensity (a.u.)
16,CTACTCAATGTAGTCATCCCGTATTAACCTTTTTCTGCAACGGAGTCACCTAGTGCAG,8300 fluorescence intensity (a.u.)
17,CGGCTTCCTGACCTTGCCGCCAGCCCGCCACAGTTGCCATCGGAGTCACCTAGTGCAG,9980 fluorescence intensity (a.u.)
18,TTACTGATGTCATCGTTCCAGGCCGTTGGTCCCGCTGCCTCGGAGTCACCTAGTGCAG,8330 fluorescence intensity (a.u.)
19,CTATATATATCATGCGTATGCCTTTTGCATTCCAAATCATCGGAGTCACCTAGTGCAG,9330 fluorescence intensity (a.u.)
20,CCTTTTTTGTTTGTTATGTTTTTTCCACGGTTTTTTTTCGCGGAGTCACCTAGTGCAG,14100 fluorescence intensity (a.u.)
21,AATCATGTACTTTGAGGTCCTTACGTGATATGTTTTTCTTCGGAGTCACCTAGTGCAG,10500 fluorescence intensity (a.u.)
